Measured values reported in PubChem BioAssay AID1259354 (Paczesny and Yang Labs, IUPUI and University of Michigan, 2018).
The whole screen tested about 78,000 compounds, of which about 1,800 (2.3%) were called active. Inconclusive results, whose numbers are uncertain, are shown with a selection of clear calls. Rule as the data show it: active = inhibition above about 30%; inconclusive = mostly about 10% to 28%; inactive = weaker than that.

Protein sequences, listed by entry. Tags and fused reporters are not part of them. Lines headed by an entry give the natural chain unless they say otherwise; changes in a name come on top.
UniProt Q01638: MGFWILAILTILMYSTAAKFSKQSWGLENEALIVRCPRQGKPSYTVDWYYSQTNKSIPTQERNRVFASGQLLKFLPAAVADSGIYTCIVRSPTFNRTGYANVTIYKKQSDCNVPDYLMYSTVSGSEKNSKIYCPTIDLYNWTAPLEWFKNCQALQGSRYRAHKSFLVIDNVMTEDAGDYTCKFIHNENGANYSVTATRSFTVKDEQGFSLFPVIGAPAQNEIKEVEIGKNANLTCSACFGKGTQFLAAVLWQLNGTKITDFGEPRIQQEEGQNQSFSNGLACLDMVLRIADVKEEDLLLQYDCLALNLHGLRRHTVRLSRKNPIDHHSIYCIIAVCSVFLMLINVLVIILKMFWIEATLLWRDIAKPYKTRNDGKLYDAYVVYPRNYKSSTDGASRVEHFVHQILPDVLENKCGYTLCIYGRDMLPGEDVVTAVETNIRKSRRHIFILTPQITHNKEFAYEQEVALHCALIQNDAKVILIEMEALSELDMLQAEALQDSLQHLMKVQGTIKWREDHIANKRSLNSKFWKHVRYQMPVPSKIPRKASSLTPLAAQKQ

The compounds below were run against Interleukin-1 receptor-like 1 (Homo sapiens) (UniProt Q01638) (assay: blocks human ST2 binding to IL-33, primary screen, biochemical, AlphaLISA (AID 1259354)). Conditions: AlphaLISA ST2-Fc/biotin-IL-33 interaction, 1 h; at 17 µM, stronger effect = higher value.
For Cc1cccc(N(CC(=O)O)CC(=O)O)c1, the inhibition was inconclusive: 20%. With CCN(CC)C(=O)Cn1cnc2sc(C(=O)Nc3cccc(C(F)(F)F)c3)c(C)c2c1=O the inhibition was “inactive”. For CC(C)C(=O)N1c2ccccc2NC2=C(C(=O)CCC2)C1c1ccc(Cl)c(Cl)c1 (configuration not stated), the inhibition was inconclusive: 12%. In the case of CCC(=O)Nc1nc2cc(NC(=O)C3CCN(S(=O)(=O)N(CC)CC)CC3)ccc2s1, the inhibition is reported as “inactive”. In the case of COc1ccc2cc3cc(C(=O)N4CCN(C)CC4)oc3nc2c1, the inhibition is reported as “inactive”. With CCCC(CC(=O)O)c1c2c(c(O)c3c1OC(C)C(C)C3=O)C=CC(C)(C)O2 (configuration not stated) the inhibition was inconclusive: 13%. In the case of Cc1ccc(NC(=O)CN(C)Cc2csc(C(C)C)n2)c(C)c1, the inhibition is reported as “inactive”. For Cc1cc(O)c(Cc2c(O)cc(C)oc2=O)c(=O)o1, the inhibition was inconclusive: 13%. In the case of c1ccc(-c2noc(CN3CCc4[nH]cnc4C3c3ccccn3)n2)cc1 (configuration not stated), the inhibition is reported as inconclusive: 14%. In the case of COc1ccc(C)cc1NC(=O)CN1C(=O)CCc2cc(S(=O)(=O)N3CCCC3)ccc21, the inhibition is reported as inconclusive: 12%. CCOc1ccccc1C1C(C(=O)OCCOC)=C(C)NC2=C1C(=O)C(C(=O)OC)C(C)C2 (configuration not stated) was tested, and the inhibition was “inactive”. O=c1/c(=C/c2cccnc2)sc2nc(-c3ccc(Cl)cc3Cl)nn12 was tested, and the inhibition was inconclusive: 17%. CC(=O)N1CCN(Cc2c(Cl)cccc2Cl)CC1 was tested, and the inhibition was inconclusive: 10%. For O=C(O)c1cc2c3c(c1)C1C=CCC1C(c1ccc(F)cc1)N3CC1CC=CC21 (configuration not stated), the inhibition was “inactive”. With CSc1nc(C(=O)NCc2cccnc2N2CCOCC2)cs1 the inhibition was inconclusive: 14%. CN1CCC(NC[C@H]2O[C@@H](CO)[C@@H](O)[C@H]2N2CCN(c3ncccn3)CC2)CC1 was tested, and the inhibition was inconclusive: 16%. With c1cncc(-c2nccn2-c2ccc(OCc3ccco3)cc2)c1 the inhibition was inconclusive: 28%. In the case of COC(=O)CCCC(=O)N1CCCC(C(=O)c2ccc(-c3ccccc3)c(F)c2)C1 (configuration not stated), the inhibition is reported as inconclusive: 20%. Cc1ccc2[nH]c3c(c2c1)CCCC3NCc1ccc(Cl)cc1 (configuration not stated) was tested, and the inhibition was inconclusive: 23%. Fc1ccc(Nc2c(-c3cccnc3)nc3ccccn23)cc1 was tested, and the inhibition was inconclusive: 13%. With COCCn1cc(C(=O)N2CCN(c3cccc(Cl)c3)CC2)c2c3ccccc3n(C)c2c1=O the inhibition was inconclusive: 14%. In the case of O=C1CCCN1CCCN1CC(C(=O)N2CCN(CC3CCCC3)CC2)CCC1=O (configuration not stated), the inhibition is reported as inconclusive: 18%. C=CCn1cc(CN2CCCC(c3nc(-c4cccnc4)no3)C2)c(C)n1 (configuration not stated) was tested, and the inhibition was inconclusive: 18%. With CCOc1ccc(C2CC(c3ccc(Cl)cc3Cl)Nc3nc(N)nn32)cc1 (configuration not stated) the inhibition was inconclusive: 10%. With O=C(Nc1cc2cc[nH]c2cn1)c1ccccc1 the inhibition was “inactive”. For Cc1cccc(C(=O)ON=C2CCSCC2)c1, the inhibition was inconclusive: 10%. In the case of O=C(NC[C@H]1O[C@@H](CC(=O)N2CCOCC2)[C@H](O)[C@@H]1O)c1ccc2c(c1)OCO2, the inhibition is reported as “inactive”. Fc1ccc(C2=NN(c3ccccc3)C(c3ccco3)C2)cc1 (configuration not stated) was tested, and the inhibition was active: 45%. O=C(c1ccc(C(=O)N2CCOCC2)nc1)N1CCOCC1 was tested, and the inhibition was inconclusive: 22%. In the case of Cn1cnnc1C1CCN(Cc2cc3cc4c(cc3[nH]c2=O)OCO4)CC1, the inhibition is reported as “inactive”. With Cc1nnc(SCC(=O)N2CCc3ccccc3C2)s1 the inhibition was inconclusive: 13%. In the case of O=c1[nH]c(-c2ccc(F)cc2)cn1-c1cccc(Br)c1, the inhibition is reported as inconclusive: 20%. In the case of O=C(CC(=O)Nc1ccccc1)Nc1ccccc1, the inhibition is reported as inconclusive: 12%. For Nc1cc(=O)[nH]c(SCC(=O)Nc2ccc(Br)cn2)n1, the inhibition was “inactive”. In the case of COc1cc(-c2nc3nc[nH]n3c2Nc2ccc(C(C)C)cc2)ccc1O, the inhibition is reported as inconclusive: 29%. For COc1ccccc1CN=Cc1[nH]c2ccc(Br)c(Cl)c2c1O, the inhibition was inconclusive: 10%. For COc1ccccc1NC(=O)N1C[C@@H]2C[C@H](C1)c1c(-c3ccc(NC(C)=O)cc3)ccc(=O)n1C2, the inhibition was inconclusive: 11%. With N#Cc1c(-c2ccccc2)cc(-c2ccccc2)nc1SCC(=O)O the inhibition was “inactive”. For O=C(CSc1nc2ccccc2[nH]1)NCc1ccco1, the inhibition was inconclusive: 18%. For CCCCOC(=O)Nc1ccc(N(C)C)cc1, the inhibition was active: 42%. In the case of COCCOC(=O)C1=C(C)NC2=C(C(=O)CCC2)C1c1ccccc1 (configuration not stated), the inhibition is reported as “inactive”. In the case of CC(OC(=O)c1cc2ccccc2oc1=O)c1nc2ccccc2s1 (configuration not stated), the inhibition is reported as inconclusive: 15%. With O=C1CC2(CCN(C(=O)c3ccccc3OC(F)(F)C(F)F)CC2)CN1 the inhibition was inconclusive: 11%. With Cc1ccsc1[C@@H]1CCN(C(=O)Cn2[nH]c(=O)ccc2=O)C[C@H]1O the inhibition was inconclusive: 16%. With COc1ccc2nc(N3CCC(C(=O)NCc4ccco4)CC3)sc2c1 the inhibition was “inactive”. For c1ccc(C(CCn2ccnc2)NC2CCCCCC2)cc1 (configuration not stated), the inhibition was inconclusive: 10%. For O=C(NCCNc1cccnc1)c1ccc(-c2ccn[nH]2)cc1, the inhibition was “inactive”. For CCCn1ccnc1CN1CCCC1c1ccccn1 (configuration not stated), the inhibition was “inactive”. In the case of CSc1nnc(-c2cc(Br)ccc2N)c(=O)[nH]1, the inhibition is reported as inconclusive: 16%. In the case of CC1(C)CC(=O)C2=C(C1)NC1=C(C(=O)CC(C)(C)C1)C2c1ccc(OCc2ccccc2)cc1, the inhibition is reported as “inactive”. For COc1ccc(Br)cc1C1CC(=O)Nc2c1ccc1ccccc21 (configuration not stated), the inhibition was inconclusive: 14%. CCOc1ccc2ccccc2c1CN(C)Cc1noc(C)n1 was tested, and the inhibition was inconclusive: 19%. COc1ccc(NS(=O)(=O)c2cccc3cccnc23)cc1Cl was tested, and the inhibition was inconclusive: 13%. With CC1=NN(c2cccc(Cl)c2)C(=O)/C1=C\c1ccc(-c2cc([N+](=O)[O-])ccc2O)o1 the inhibition was active: 91%. In the case of CCn1c(CC2CCNCC2)nn(Cc2noc(-c3ccccc3)n2)c1=O, the inhibition is reported as inconclusive: 14%. For O=C(Nc1ccc2c(c1)OCCO2)c1ccc(C(=O)Nc2ccc3c(c2)OCCO3)nc1, the inhibition was inconclusive: 20%. In the case of O=C(O)c1cc(-c2ccccc2)nn1-c1ccccc1, the inhibition is reported as “inactive”. With COc1ccc(/C=C/c2nc3ccccc3c(=O)n2Cc2ccccc2)cc1 the inhibition was “inactive”. In the case of CCn1cc(CNCc2cn(C)nc2-c2ccc(C3CCCCC3)cc2)cn1, the inhibition is reported as inconclusive: 23%. With O=C1NCC2(CCN(c3ccnc(C(=O)NCCc4ccccc4)c3)CC2)O1 the inhibition was inconclusive: 20%. CCN1Cc2ccccc2CC1C(=O)NCCSc1nnnn1C (configuration not stated) was tested, and the inhibition was “inactive”. In the case of CCCc1nc(C(=O)NCc2cnn3ccccc23)cs1, the inhibition is reported as inconclusive: 11%. For Cc1ccc(C(=O)CNc2cc(C)ccc2C)cc1, the inhibition was inconclusive: 22%. For NC1=NC(=O)/C(=C\c2ccc(-c3ccccc3[N+](=O)[O-])o2)S1, the inhibition was inconclusive: 27%. Cc1noc(C)c1COc1ccc(C(=O)N[C@@H]2CN(C3CCN(C)CC3)CCC[C@H]2O)cc1 was tested, and the inhibition was inconclusive: 20%. In the case of COc1ccc(C2=N/C(=C\c3ccc(Cl)cc3)C(=O)O2)cc1[N+](=O)[O-], the inhibition is reported as inconclusive: 12%. In the case of O=C(NC[C@H]1O[C@@H](CO)[C@@H](O)[C@H]1N1CCc2ccccc2C1)N1CCOCC1, the inhibition is reported as inconclusive: 18%. With O=C(c1cc(-c2ccc3c(c2)OCO3)on1)N1CCCCCC1 the inhibition was “inactive”. With CCOC(=O)C1Nc2c(ccc(C(=O)O)c2C)C2C=CCC12 (configuration not stated) the inhibition was “inactive”. In the case of COc1ccc2c(C)nc(N3CCCC(C(=O)NC4[C@@H]5CC6C[C@H]4CC(O)(C6)C5)C3)nc2c1 (some centres not stated), the inhibition is reported as “inactive”. For O=C(NC1CCCCCCC1)c1cccn2c(=O)c3sccc3nc12, the inhibition was inconclusive: 16%. With COCC(=O)NC[C@@H]1C=C(C)[C@H](CC(=O)N2CCN(C)CC2)C[C@H]1C(C)C the inhibition was inconclusive: 21%. With Cc1onc(-c2ccccc2)c1C(=O)Nc1sc2c(c1C(N)=O)CCCCCC2 the inhibition was “inactive”. Cc1ncc(C)c(-c2cccc(OC(C)C)c2)n1 was tested, and the inhibition was inconclusive: 27%. In the case of COc1cccc(NC(=O)c2cc3c(=O)n4ccccc4nc3n2C)c1, the inhibition is reported as inconclusive: 23%. In the case of O=c1cc(-c2ccccc2)oc2cc(O)cc(O)c12, the inhibition is reported as inconclusive: 13%. Nc1cccc2c1C(=O)N(c1ccc(O)cc1)C2=O was tested, and the inhibition was “inactive”. For COc1cc(C(=O)Nc2cc3c(ccc4ccccc43)oc2=O)cc(OC)c1OC, the inhibition was inconclusive: 18%. In the case of CCc1nc(-c2ccc(OC)c(C)c2)cc2cc(OC)c(OC)cc12, the inhibition is reported as “inactive”. For CCc1cccc(C)c1NC(=O)COc1ccccc1, the inhibition was inconclusive: 14%. For CCCC(=O)NC(C)c1nc2ccccc2n1C(C)C (configuration not stated), the inhibition was inconclusive: 13%. For Cc1cccc(C)c1OCC(O)CN1CCN(Cc2ccc3c(c2)OCO3)CC1 (configuration not stated), the inhibition was inconclusive: 23%. c1cncc(CN2CCC(N3CCCCCC3)CC2)c1 was tested, and the inhibition was “inactive”. O=C(NC1CC1)C1CCN(S(=O)(=O)N2CCCC2)CC1 was tested, and the inhibition was “inactive”. In the case of Cc1cc(C)n2nc(SCc3ccccc3Cl)nc2n1, the inhibition is reported as “inactive”. In the case of CN(c1ncccc1C(=O)N1CCOC2(CNCCOC2)C1)C1CCCCC1 (configuration not stated), the inhibition is reported as “inactive”. With CCOC(=O)c1[nH]c2ccccc2c1NC(=O)c1cc(Br)ccc1Cl the inhibition was inconclusive: 13%. For CC(O)=c1ccc2nc(C)nc3cccc1c32, the inhibition was inconclusive: 17%. CC(C(=O)O)c1n[nH]c(=O)c2ccccc12 (configuration not stated) was tested, and the inhibition was inconclusive: 15%. With Cc1ccccc1-c1noc(CN2CCCC2c2nc(-c3ccccn3)no2)n1 (configuration not stated) the inhibition was “inactive”. With CC(=O)N1CCC(N(CCCOC(C)C)S(=O)(=O)c2ccc(C(C)(C)C)cc2)CC1 the inhibition was “inactive”. For Cn1c2c(c(=O)n(C)c1=O)CN(Cc1ccco1)CN2, the inhibition was inconclusive: 13%. In the case of Cc1cc(C)n2c(Br)c(CSc3nncn3-c3ccccc3)nc2n1, the inhibition is reported as “inactive”. With O=C(CCCc1ccccc1)NCC1Cc2cc(-c3cncnc3)cc(Cl)c2O1 (configuration not stated) the inhibition was inconclusive: 14%. In the case of O=C(Nc1cccc(F)c1)Nc1ccc(=O)n2c1[C@@H]1C[C@@H](CN(C(=O)COc3ccccc3)C1)C2, the inhibition is reported as “inactive”. For O=C(CCS(=O)(=O)c1cccc2nonc12)N1CCN(c2ccccc2F)CC1, the inhibition was “inactive”. In the case of C=CCOc1ccc(Cl)cc1CN1CCOC(CN)C1 (configuration not stated), the inhibition is reported as inconclusive: 13%.
